This is an account of results in paper PMC9691929.

These are yes or no findings as the source states them, for the method shown. In cells and extracts the contact can be indirect. Some binding calls cover weakened binding; strength is not graded here. Tags and fused reporters may be left off the sequences shown.

The assay addresses T1, Hspa13 with a C-terminal Flag (human) (UniProt P48723).
T1 sequence: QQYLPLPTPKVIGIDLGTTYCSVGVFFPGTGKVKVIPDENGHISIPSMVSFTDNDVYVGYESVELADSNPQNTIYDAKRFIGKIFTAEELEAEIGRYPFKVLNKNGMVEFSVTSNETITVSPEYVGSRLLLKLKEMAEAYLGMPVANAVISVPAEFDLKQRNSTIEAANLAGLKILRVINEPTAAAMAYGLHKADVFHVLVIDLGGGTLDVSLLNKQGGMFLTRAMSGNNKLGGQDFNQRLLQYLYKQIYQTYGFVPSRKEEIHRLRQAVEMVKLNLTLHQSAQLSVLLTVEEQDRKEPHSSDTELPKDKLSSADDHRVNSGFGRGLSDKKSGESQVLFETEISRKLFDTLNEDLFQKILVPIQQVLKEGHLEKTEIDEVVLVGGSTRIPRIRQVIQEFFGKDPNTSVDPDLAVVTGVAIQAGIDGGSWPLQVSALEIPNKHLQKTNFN
Description: co-IP; optimisation of DSP crosslinking before lysis and anti-Flag immunopurification of Hspa13^Flag from HEK293T; maximal recovery with 2 mM DSP for 30 min (Fig. S2B).

B1: Bcap31 (protein, UniProt P51572 1-246)
chain: MSLQWTAVATFLYAEVFVVLLLCIPFISPKRWQKIFKSRLVELLVSYGNTFFVVLIVILVLLVIDAVREIRKYDDVTEKVNLQNNPGAMEHFHMKLFRAQRNLYIAGFSLLLSFLLRRLVTLISQQATLLASNEAFKKQAESASEAAKKYMEENDQLKKGAAVDGGKLDVGNAEVKLEEENRSLKADLQKLKDELASTKQKLEKAENQVLAMRKQSEGLTKEYDRLLEEHAKLQAAVDGPMDKKEE
On to B1, for which the binding entry is reported as “binds”.
